Screen size: about 350,000 compounds; about 220 (0.063%) were called active. Inconclusive results, whose numbers are uncertain, are shown with a selection of clear calls. Calls follow the shape of the dose curve; as a rule, active = well fitted activation curve with a large enough effect; inconclusive = small, poorly fitted or top-dose-only effect; inactive = no such curve, though single readings can be large or run the other way. Potencies of inconclusive entries are doubtful fits and often do not repeat.
Experiment: qHTS for Activators of Integrin-Mediated Alleviation for Muscular Dystrophy; also: nearly all actives have a fitted effect of over 60% in size;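 as to activation: 100% = response of the positive control SU9516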
Settings: alpha7betagal myoblasts, beta-gal FDG fluorescence, 48 h; activation: at 38.3 µM (top of the series)
Procedure, shortened: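 Alpha7betagal+/- myoblasts (passage 13) were plated 16-24 hr, then exposed to compounds (1:260 dilution of DMSO stock) for 48 hours at 37C. After MPER lysis, β-galactosidase reporter activity was read as FDG fluorescence (ex 480/em 540) after 30 minutes.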
Potency is read from the fitted curve at half-maximal effect.

activation, inactive:
O=C1C=CC(=O)N1Cc1cccnc1 -9.5%
Cc1ccc(C2CC(c3cccs3)=NN2C(=O)CCl)cc1 (centres undefined) -74.3%
Cc1cccc(N2C(=O)C(Cc3ccccc3)NC2=S)c1 (centres undefined) -19.3%
C/C(=N\NC(=S)NCc1ccccc1)c1ccco1 3.34%
COC(=O)c1sc2nc(N3CCCCC3)c3c(c2c1N)CCCC3 1.49%
CCc1nnc(NC(=O)C2CCCN2C(=O)Nc2ccc(C)cc2)s1 (centres undefined) 30.6%
CCn1cc(C(=O)NCC(OC)OC)c(=O)c2cc(S(=O)(=O)N3CCOCC3)ccc21 9.72%
CCc1nnc(NC(=O)c2ccc(-c3ccc([N+](=O)[O-])cc3Cl)o2)s1 -18.4%
O=C(NCCN1CCCC1)c1ccc(Cl)cc1 -24.3%
CC(=O)c1c(C)[nH]c(C(=O)CSc2nnc(-c3cccs3)n2Cc2ccccc2)c1C 3.25% [at 7.66 µM]
CCc1ccc(OCC(=O)Nc2ccc(N3CCN(S(C)(=O)=O)CC3)cc2)cc1 -7.31%
CCc1cc(=O)oc2cc3occ(-c4ccc(OC)c(F)c4)c3cc12 -23.3%

Pulled by structure from the entries so far, 3 records:
activation, inactive:
Cc1ccc(C2CC(c3cccs3)=NN2C(=O)CCl)cc1 (centres undefined) -74.3%
O=C(NCCN1CCCC1)c1ccc(Cl)cc1 -24.3%
O=C1C=CC(=O)N1Cc1cccnc1 -9.5%

Following part:

activation, inconclusive:
CN1C(=O)CC(C(=O)Nc2ccc(F)cc2)SC1=Nc1ccc2c(c1)OCO2 (centres undefined) 19.3% [activator]

Potency, active:
O=C(NCCc1ccc(F)cc1)N[C@@H](Cc1ccccc1)C(=O)O 11.2 µM

Potency, inconclusive:
CC1Cc2ccccc2N1C(=O)CCS(=O)(=O)c1cccc2nonc12 (centres undefined) 5.01 µM [activator, single point]
O=C(N/N=C\c1ccc2c(c1)OCO2)c1ccc(Cn2cc(Br)c([N+](=O)[O-])n2)o1 5.01 µM [activator, single point]
COc1ccc(CN(C)C(=O)c2ccccc2Sc2ccccc2C#N)cc1OC 5.01 µM [activator, single point]
CC1C=CCC2C(=O)N(c3cccc(C(=O)NCCc4ccccc4)c3)C(=O)C12 (centres undefined) 10 µM [activator, single point]
O=C(Cn1nnnc1CN1CCOCC1)N1CCC(c2cccc(Cl)c2)C1 (centres undefined) 12.6 µM [activator, single point]
NC(=O)C1CCN(c2ccc(C(F)(F)F)cn2)CC1 3.55 µM [activator, partial curve, poor fit]
C/C(=N\Nc1nc(C)cc(-c2ccccc2)n1)c1ccccc1 5.01 µM [activator, single point]
COc1ccc(N2C(=O)C(F)(F)C2c2cccc(F)c2)cc1 (centres undefined) 5.01 µM [activator, single point]
O=C(Nc1ccc(F)cc1)C1COc2ccccc2O1 (centres undefined) 1.58 µM [activator, partial curve, poor fit]
N#CCCNC(=O)Cn1c(COc2ccc(Cl)cc2)nc2ccccc21 22.4 µM [activator, single point]
COC(=O)c1cn(C(=O)c2cccc(Br)c2)c2ccccc12 12.6 µM [activator, single point]
CCn1c(COc2ccc(Cl)cc2)nnc1SCc1ccc(C#N)cc1 10 µM [activator, partial curve, poor fit]
Cc1ccc(S(=O)(=O)c2nnn3c2nc(N2CCCCC2)c2ccccc23)cc1 2.51 µM [activator, partial curve, poor fit]
CCNC(=S)NC1CC2CCCC(C1)N2Cc1ccc(C)cc1 (centres undefined) 5.01 µM [activator, single point]
COc1ccc(CCNC(=O)c2ccc(Cl)cc2Cl)cc1OC 5.01 µM [activator, single point]
O=C(O)c1csc(-c2cccs2)n1 11.2 µM [activator, partial curve, poor fit]
CCNC(=O)COC(=O)/C=C/c1cccc(F)c1 3.55 µM [activator, single point]
Cc1ccccc1NC(=S)NCC1CCC(CNC(=S)Nc2ccccc2C)CC1 (centres undefined) 28.2 µM [activator, single point]
CN1CCN(C=Nc2nc3ccccc3nc2N2CCCC2)CC1 28.2 µM [activator, single point]
O=C(O)c1cc(NS(=O)(=O)c2ccc3ccccc3c2)ccc1O 31.6 µM [activator, single point]
COc1ccc(CCn2c(=N)c(S(=O)(=O)c3ccc(C)cc3)cc3c(=O)n4ccccc4nc32)cc1 28.2 µM [activator, single point]
CCCCSc1nnc2c(n1)[nH]c1ccccc12 3.16 µM [activator, partial curve, poor fit]
COc1ccc(S(=O)(=O)N2CCCCCC2)cc1C(=O)NCc1ccccc1Cl 2 µM [activator, full curve, poor fit]
NC(=O)COC(=O)c1ccccc1OCc1ccccc1Cl 14.1 µM [activator, partial curve, poor fit]
CCn1cc(C(=O)N2CC(C)CC(C)C2)c(=O)c2cc(S(=O)(=O)N3CCCC3)ccc21 (centres undefined) 22.4 µM [activator, single point]
CC1=CCC(C(=O)O)C(C(=O)Nc2cccnc2)C1 (centres undefined) 28.2 µM [activator, single point]
FCCCOc1ccc(CN2CCN(c3ccccc3F)CC2)cc1 28.2 µM [activator, single point]
COc1ccc(CN(C(=O)/C=C/c2ccccc2Cl)C2CCS(=O)(=O)C2)cc1 (centres undefined) 3.16 µM [activator, partial curve, poor fit]
COc1ccc(-c2csc(NC(=O)c3ccc(N4C(=O)CCC4=O)cc3)n2)cc1 12.6 µM [activator, single point]
CCOCCCn1c(=S)[nH]c2cc(C(=O)N3CCC(C(N)=O)(N4CCCCC4)CC3)ccc2c1=O 3.16 µM [activator, single point]

Reference: PubChem BioAssay AID624291 (National Center for Advancing Translational Sciences (NCATS), 2012)
